In article PMC9675814, “DNA mechanical flexibility controls DNA potential to activate cGAS-mediated immune surveillance”:
A weaker result is weaker than the reference pair of the same experiment. For some of these results: Construct, isoform or probe ends are uncertain for at least one entry. For some of these results: At least one verdict was read from the data and is not stated in words by the source.

Protein sequences, listed by entry. Tags and fused reporters are not part of them.
UniProt Q8N884, whole entry: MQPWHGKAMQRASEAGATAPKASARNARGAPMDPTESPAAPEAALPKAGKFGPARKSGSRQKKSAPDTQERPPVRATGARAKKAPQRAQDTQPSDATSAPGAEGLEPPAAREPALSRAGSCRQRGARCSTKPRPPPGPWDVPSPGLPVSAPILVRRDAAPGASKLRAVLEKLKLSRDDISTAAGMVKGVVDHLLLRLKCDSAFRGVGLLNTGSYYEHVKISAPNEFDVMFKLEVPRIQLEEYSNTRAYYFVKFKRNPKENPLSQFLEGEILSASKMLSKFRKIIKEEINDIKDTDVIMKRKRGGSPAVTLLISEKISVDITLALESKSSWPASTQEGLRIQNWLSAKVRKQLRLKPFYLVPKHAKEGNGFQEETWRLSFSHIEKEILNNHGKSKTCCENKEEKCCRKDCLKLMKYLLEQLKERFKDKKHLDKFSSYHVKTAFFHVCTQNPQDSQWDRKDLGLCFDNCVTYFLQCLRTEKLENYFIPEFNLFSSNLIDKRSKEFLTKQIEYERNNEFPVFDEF

Target: hcGAS WT (Homo sapiens) (UniProt Q8N884)
Experiment: MARTFQ fluorescence quenching
Details: MARTFQ: 50 nM cGAS, DNA titration, 5 min; recombinant protein; residues 1-522; protein details: His (pET-28a, Ni purified); label: 5' Cy3 on F (EMSA)

Sequence	binding result
TTTTATTTATCGCCTCCTTTTTTTTTTTTTTTTTTTTTTTTTTCCGTGTTATCTCGAGTTAGT (double strand) [E8A26 63 bp]	binds more weakly

Target: hcGAS WT (Homo sapiens) (UniProt Q8N884)
Experiment: EMSA
Details: EMSA: 50 nM Cy3-DNA, 20 mM Tris-HCl pH 7.5, 150 mM NaCl, 37 C 30 min, 1.5% agarose; recombinant protein; residues 1-522; protein details: His (pET-28a, Ni purified)

Sequence	binding result
AAAAAAAAAAAAAAAAAAAAAAAAAAAAAAAAAAAAAAAAAAAA (double strand) [pA:pT 44 bp]	binds more weakly

Same assay, conditions: EMSA: 50 nM Cy3-DNA, 20 mM Tris-HCl pH 7.5, 150 mM NaCl, 37 C 30 min, 1.5% agarose; recombinant protein; residues 1-522; protein details: His (pET-28a, Ni purified); label: 5' Cy3 on F (EMSA)

Sequence	binding result
TTTTATTTATCGCCTCCTTTTTTTTTTTTTTTTTTTTTTTTTTCCGTGTTATCTCGAGTTAGT (double strand) [E8A26 63 bp]	binds more weakly

Same assay, conditions: Kd shown only in figure; EMSA: 50 nM Cy3-DNA, 20 mM Tris-HCl pH 7.5, 150 mM NaCl, 37 C 30 min, 1.5% agarose; recombinant protein; residues 1-522; protein details: His (pET-28a, Ni purified)

Sequence	binding result
CAAAAGTGACATCCACAGCAAGCTGGACAGGTAAATTGCCTCATACAATC (double strand) [seq9]	binds
TGTCTACTTGAAATTCTAATTCATATTTTTTTTGTTTGGATAGAATATCA (double strand) [seq2]	binds
GGAATGGTTACCGAAAACGGGCTTCTTCTCATCCATATCCATAATTTCAT (double strand) [seq10]	binds
CTTCAACGCACCTTAAATCTATTCTTTTAAATTTTCCAGATTCTATTAAC (double strand) [seq4]	binds
TGTTACGCATACACACAAGTACAGATTTGTATATAGTATTTCTTCTTCGT (double strand) [seq5]	binds
TTTATCTCAAATTTGCGCTTTTTAGTCCAATCTCTCACAGTGACTATAGT (double strand) [seq3]	binds
TGCTAATCCATATCATATAATCTAAAAACAAATCTAAAGGATCATCCATA (double strand) [seq8]	binds
TTTGTCAGGGTGTTCTTCGATTTTCCTTAGGTGCTTTTAGGACTTGTTTA (double strand) [seq7]	binds
CGACTATTTTTTAATTGATAGTTCTGAAGGCTCTTCTACTGATGACGAAC (double strand) [seq6]	binds
AGGGCTTTTCTGTATTTTCTCATAGACATTATTTATCAGTAATTGCAGCT (double strand) [seq1]	binds
